Assay results taken from patent US20190367631A1.
Numbering of substitutions follows the chain as printed. Numbers in names are those of the source. No constants are given. Whether binding was seen depends on the method and setting. Some results given as binding are weak or reduced against the parent protein; the word gives no strength. For some of these results: Where a sequence is shown, tags or fusion partners need not be part of it.

T1: human MSR1 extracellular domain expressed with a N-terminal nonahistidine tag (His9-hMSR1) (human) (UniProt P21757)
T1 sequence (looked up): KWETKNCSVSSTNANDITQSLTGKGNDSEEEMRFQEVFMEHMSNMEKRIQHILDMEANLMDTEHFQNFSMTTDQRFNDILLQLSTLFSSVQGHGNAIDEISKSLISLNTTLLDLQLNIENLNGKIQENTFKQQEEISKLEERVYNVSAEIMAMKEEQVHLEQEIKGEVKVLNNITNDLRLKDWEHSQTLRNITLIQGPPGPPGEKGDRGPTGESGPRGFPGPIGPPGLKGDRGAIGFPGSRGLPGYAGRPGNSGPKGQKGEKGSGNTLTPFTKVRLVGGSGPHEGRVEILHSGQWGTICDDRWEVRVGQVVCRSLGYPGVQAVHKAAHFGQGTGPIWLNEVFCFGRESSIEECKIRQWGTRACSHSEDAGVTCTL

T2: mouse MSR1 extracellular domain expressed with a N-terminal nonahistidine tag (His9-mMSR1) (mouse) (UniProt P30204)
T2 sequence (looked up): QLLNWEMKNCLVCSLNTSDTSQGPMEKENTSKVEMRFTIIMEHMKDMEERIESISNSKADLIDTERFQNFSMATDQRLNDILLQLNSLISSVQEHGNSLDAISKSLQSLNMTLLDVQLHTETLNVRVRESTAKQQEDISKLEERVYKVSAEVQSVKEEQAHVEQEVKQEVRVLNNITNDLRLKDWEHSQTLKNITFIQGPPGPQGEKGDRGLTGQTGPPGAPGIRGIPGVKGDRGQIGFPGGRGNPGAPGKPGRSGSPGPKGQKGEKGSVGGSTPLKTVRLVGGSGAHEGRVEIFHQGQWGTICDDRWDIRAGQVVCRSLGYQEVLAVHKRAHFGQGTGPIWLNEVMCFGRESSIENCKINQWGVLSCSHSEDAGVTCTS

B1: H1H21234N-N297Q-LP3 (antibody, V domains shown)
VH: QVQLQESGPGLVKPSETLSLTCTVTGGSISRNYWSWIRQPPGKGLEWIGYIYYSGSIDYNPSLKSRVTISVDTSKNQFSLKLSSMTAADTAVYYCARDRWNWKYGMDVWGQGTTVIVSS
VL: EIVLTQSPGTLSLSPGERATLSCRASQTVRNNYLAWYHQKPGQAPRLLIYGASSRATGIPDRFSGSGSGTDFTLTISRLEPEDFTVYYCHQYGNSPWTFGQGTKMEIKR
modifications: LP3 via PEG3-N3 on Q295 and Q297 of the heavy chain constant region
B2: H1H21234N-N297Q (antibody, human IgG1, V domains shown)
VH: B1 VH
VL: B1 VL
B3: H1H21234N (antibody, human IgG1, V domains shown)
VH: B1 VH
VL: B1 VL
B4: H1H27729P-N297Q (antibody, human IgG1, V domains shown)
VH: QVQLVESGGGLVKPGGSLRLSCAASGFIFSDYYMSWIRQAPGKGLEWVSYISSSGTTIYGDSVKGRFTMSRDNAKNSLYLQMNSLRAEDTAVYYCARNYALFDYWGQGTLVTVSS
VL: DIQMTQSPSSLSASVGDRVTITCQASQDISKYLNWYQQKPGKAPKLLIYYTSNLETGVPSRFSGSGSGTDFTFTISSLQPEDIATYYCHQSDYLPFTFGPGTKVDIKR
B5: H1H27734P-N297Q (antibody, human IgG1, V domains shown)
VH: EVQLVESRGGLVQPGGSLRLSCAASGFTFSSYAMSWVRQAPGKGLEWVSAISGSGGSTFYADSVKGRFTISRDNSKNTVYLQMNSLRAEDTAVYYCAKALVLRFLEWLGDYWGQGTLVTVSS
VL: DIQMTQSPSTLSASVGDRVTITCRASQSISSWLAWFQQKPGKAPKLLIYKASSLESGVPSRFSGSGSGTEFTLTISSLQPDDFATYYCQQYKSYWTFGQGTKVEIKR
B6: H1H27739P-N297Q (antibody, human IgG1, V domains shown)
VH: EVQLVESGGGLVQPGGSLRLSCTASGFTFSSYAMSWVRQAPGKGLEWVSAISGTGSSTYFTDSVKGRFAISRDNSKNTLYLQMNSLRAEDTAVYYCAKDGEWLSTVTLFDYWGQGTLVTVSS
VL: EIVMTQSPATLSVSPGERATLSCRASQSVSSNLAWYQQKPGQAPRLLIYGASTRATGIPARFSGSGSGTDFTLTISSLQSEDFALYYCQQYFIWPPHPTFGPGTKVDIKR
B7: H1H27747P-N297Q (antibody, human IgG1, V domains shown)
VH: QVQLVESGGAVVQPGRSLRLSCAASGFTFSYYGMHWVRQAPGKGLEWVAVISYDGSKKYYADSVKGRFTISRDNSKNTLYLQMNSLRAEDTAVYYCAKDLTVDFYYGMDVWGQGTTVTVSS
VL: DIQMTQSPSSVSASVGDRVTITCRASQGISSWLAWYQQKPGKAPKLLIYATSSLQSGAPSRFSGSGSGTDFTLTISSLQPEDFATYFCQQANSFPYTFGQGTKLEIKR
B8: H1H27754P-N297Q (antibody, human IgG1, V domains shown)
VH: EVQLVESGGGLVQPGGSLRLSCAASGFTFRTYAMTWVRQAPGKGLDWVSAITGDGGNTYYADSVKGRFTISRDNSKNTLYLQMNSLRAEDTAIYYCAKDQRFSFALYYFDYWGQGTLVTVSS
VL: B7 VL with K42N, T51A, S52F, A58V, F87Y, S93N, Y96W, L104V
B9: H2aM25695N (antibody, mouse IgG2a, V domains shown)
VH: B1 VH with D58N, T73M, S83N, M85V
VL: B1 VL with N32S, T85A, H90Q, N94S, P96Y

What follows are binders tested against T1, human MSR1 extracellular domain expressed with a N-terminal nonahistidine tag (His9-hMSR1) (human) (assay: SPR Biacore T200, antibody captured, 25 C).

binding, binds:
B1

These binders were tested against T2, mouse MSR1 extracellular domain expressed with a N-terminal nonahistidine tag (His9-mMSR1) (mouse) (assay: BLI Octet, antibody captured, 25 C).

binding, binds:
B2, B3

Each binder was assayed against full length monkey MSR1 on HEK293.mfMSR1 cells (Macaca fascicularis) (assay: ECL cell binding; section head of Table 10).

binding, binds:
B2, B3, B4, B5, B6, B7, B8, B9

The binders below were run against full length monkey MSR1 on HEK293.mfMSR1 cells (monkey (Macaca fascicularis)) (assay: ECL cell binding (MSD), 11 nM antibody).

binding, binds:
B2, B3, B4, B5, B6, B7, B8, B9
